{"source": "PubChem BioAssay AID743121 (NCATS, 2013)", "purpose": "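Partners whose loss is lethal together with topoisomerase I blockade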 (primary screen)", "cells": "MDA-MB-231 cells, a human breast cancer line", "reagents": "single siRNA against human genes, 20 nM siRNA (0.8 pmol per well)", "duration": "120 h (drug added 48 h after transfection, read 72 h later)", "conditions": "camptothecin 20 nM (about EC30) for 72 h; vehicle 0.1% DMSO in parallel plates", "measured": "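Cell viability by ATP luminescence (CellTiter-Glo) as % of non-targeting siRNA wells, and the log2 ratio of viability without drug over viability with camptothecin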", "scale": "log2 vehicle/camptothecin viability: higher = stronger sensitisation to camptothecin; viability with camptothecin: higher = more viable cells", "units": "viability with camptothecin in % of control", "call rule": "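Active genes have an RSA gene-level p-value below 0.001, computed from the ratios of their separate siRNAs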", "note": "This is a random part of about 26,000 reagents. Over the whole deposit, 167 (0.63%) got an active call. 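Calls are per gene from RSA p-values that are not deposited; an individual active-marked siRNA can sensitise only weakly.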 The numbers tell different reagents against one gene apart. Further read-outs or replicates are left out here."}
{"target gene": "SOCS4", "reagent no.": 1, "log2 vehicle/camptothecin viability": -0.105, "viability with camptothecin": 110, "Call": "inactive"}
{"target gene": "SOCS4", "reagent no.": 2, "log2 vehicle/camptothecin viability": 0.638, "viability with camptothecin": 37.9, "Call": "inactive"}
{"target gene": "SOCS4", "reagent no.": 3, "log2 vehicle/camptothecin viability": -0.235, "viability with camptothecin": 55.9, "Call": "inactive"}
{"target gene": "SOCS4", "reagent no.": 4, "log2 vehicle/camptothecin viability": -0.0153, "viability with camptothecin": 95.9, "Call": "inactive"}
{"target gene": "DNAJC14", "reagent no.": 1, "log2 vehicle/camptothecin viability": 0.0847, "viability with camptothecin": 96.8, "Call": "inactive"}
{"target gene": "DNAJC14", "reagent no.": 2, "log2 vehicle/camptothecin viability": 0.845, "viability with camptothecin": 23.1, "Call": "inactive"}
{"target gene": "DNAJC14", "reagent no.": 3, "log2 vehicle/camptothecin viability": -0.517, "viability with camptothecin": 115, "Call": "inactive"}
{"target gene": "DNAJC14", "reagent no.": 4, "log2 vehicle/camptothecin viability": 0.557, "viability with camptothecin": 62.5, "Call": "inactive"}

Continued (2 carried over from the part before).
{"target gene": "DNAJC14", "reagent no.": 3, "log2 vehicle/camptothecin viability": -0.517, "viability with camptothecin": 115, "Call": "inactive"}
{"target gene": "DNAJC14", "reagent no.": 4, "log2 vehicle/camptothecin viability": 0.557, "viability with camptothecin": 62.5, "Call": "inactive"}
{"target gene": "TRIM43", "reagent no.": 1, "log2 vehicle/camptothecin viability": -0.122, "viability with camptothecin": 78.5, "Call": "inactive"}
{"target gene": "TRIM43", "reagent no.": 2, "log2 vehicle/camptothecin viability": -0.159, "viability with camptothecin": 87.1, "Call": "inactive"}
{"target gene": "TRIM43", "reagent no.": 3, "log2 vehicle/camptothecin viability": 0.23, "viability with camptothecin": 69.3, "Call": "inactive"}
{"target gene": "TRIM43", "reagent no.": 4, "log2 vehicle/camptothecin viability": 0.364, "viability with camptothecin": 39, "Call": "inactive"}
{"target gene": "IRF2BP1", "reagent no.": 1, "log2 vehicle/camptothecin viability": -0.259, "viability with camptothecin": 103, "Call": "inactive"}
{"target gene": "IRF2BP1", "reagent no.": 2, "log2 vehicle/camptothecin viability": 0.425, "viability with camptothecin": 56.7, "Call": "inactive"}
{"target gene": "IRF2BP1", "reagent no.": 3, "log2 vehicle/camptothecin viability": -0.0559, "viability with camptothecin": 73.7, "Call": "inactive"}
